From publication PMC7819943, “Rice protein-binding microarrays: a tool to detect cis-acting elements near promoter regions in rice” come the findings set out here.

Protein sequences, listed by entry. Tags and fused reporters are not part of them.
UniProt Q0JBA9, entry or part of it: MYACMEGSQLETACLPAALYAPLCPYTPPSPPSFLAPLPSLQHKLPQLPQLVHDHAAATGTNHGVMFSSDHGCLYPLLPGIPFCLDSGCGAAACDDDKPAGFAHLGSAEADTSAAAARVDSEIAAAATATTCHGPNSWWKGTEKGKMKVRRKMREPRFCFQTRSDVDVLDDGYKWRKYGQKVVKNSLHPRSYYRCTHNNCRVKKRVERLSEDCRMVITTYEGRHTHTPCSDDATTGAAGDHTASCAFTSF

Some of the results follow.

The target in this assay is OsWRKY34 (Oryza sativa, UniProt Q0JBA9 1-250). As to the kind of experiment: protein-binding microarray (RPBM); PBS, 2% BSA, 51.3 ng/ul salmon testes DNA, 50 uM zinc acetate, 200 nM TF, 25 C, 1 h; high values mean tight binding. The note with it: protein: recombinant; tags: N-terminal polyhistidine and DsRed monomer fusion (pET32a); label: CyDye5-dUTP incorporated in the synthesized complementary strand; 3' TTTTT single-stranded linker to array surface; dsDNA, one strand shown. A digest of the protocol: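 Binding signal is defined as the fluorescence intensity of each feature in arbitrary units, read on an Axon 4000B scanner. Transcription factors with N-terminal polyhistidine and DsRed fusions came from E. coli BL21-CodonPlus and were purified on Ni–NTA. They were incubated at 200 nM for 1 h at 25 °C on a custom Agilent array that had been made double-stranded with Cy5-dUTP, with 50 µM zinc acetate present, and the array was washed.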
For the sequence “ACGCACGCTCGATCGATCACTATCTCTCTTTCTCTTTCTTCGGAGTCACCTAGTGCAG”, the binding signal was 11800 fluorescence intensity (a.u.). With “CCCGACCGCCACCCACCGCCTTGCGCCCGGCCACCACCGCCGGAGTCACCTAGTGCAG”, the binding signal is 10600 fluorescence intensity (a.u.).

As for “ACGAACATTTCATTTCTTATATTTTTGCATAGTTTTTTTACGGAGTCACCTAGTGCAG”, the binding signal is 8670 fluorescence intensity (a.u.). Under “GTCAGCGTCGGCGAGCTGCTCGGGGACGGCGGGGTGGAGGCGGAGTCACCTAGTGCAG” stands 11700 fluorescence intensity (a.u.). As for “AGTGCAGACACGATTCTCGCGTGTTTACTTTTCTACTTCTCGGAGTCACCTAGTGCAG”, the figure is 9750 fluorescence intensity (a.u.); as for “GCGGAACGGGTGGGTTGTGGCTTGTGGGTCCCCAATTCACCGGAGTCACCTAGTGCAG”, 9140 fluorescence intensity (a.u.); as for “GTAACCGGCCAGGCCAGCGGTCAGTCCCGCGTGCAACACCCGGAGTCACCTAGTGCAG”, 8720 fluorescence intensity (a.u.). As for “CCTCCTGGCCCCACGCGCCCCACGCCACCTTGATACTCGCCGGAGTCACCTAGTGCAG”, the figure is 9840 fluorescence intensity (a.u.); as for “ATGTGTCCTGATGTCCTCTCAACTCTCTAAGCTTGTTTTTCGGAGTCACCTAGTGCAG”, 9700 fluorescence intensity (a.u.). As to “CCAACGTCTAAACCAACTTCATCTCTCTGGTTTATTTTGTCGGAGTCACCTAGTGCAG”, the binding signal is 9760 fluorescence intensity (a.u.). As for “TCAGTTTATTTTATTTTATTTGTTTTGTTGGACTTTCTTGCGGAGTCACCTAGTGCAG”, the figure is 11700 fluorescence intensity (a.u.); as for “ATATCCTTCTCAATTGTGCACATAGCCAAGCCATTTAACCCGGAGTCACCTAGTGCAG”, 12100 fluorescence intensity (a.u.); as for “CACATTTAATTCAAATTTCTGTTCGTCTTACAGTCAGCTACGGAGTCACCTAGTGCAG”, 8600 fluorescence intensity (a.u.). Turning to “CCTTTTCTTCCTTTTCTCTCTTTTCCCAGCCGCCACTGTTCGGAGTCACCTAGTGCAG”, the binding signal is 9600 fluorescence intensity (a.u.).

For the sequence “CAAGTTGTTTTGTTTTTTGTCAGTCGTCAGGCAGCACACACGGAGTCACCTAGTGCAG”, the binding signal was 10500 fluorescence intensity (a.u.). As to “GCCGCCGCCGCCGCCCGCGCCGATCCCCATCCATCCCGCACGGAGTCACCTAGTGCAG”, the binding signal was 8970 fluorescence intensity (a.u.). As to “CCGTTTCATCTTTTCTTTAGCCTATATTGCAATTTTTGTACGGAGTCACCTAGTGCAG”, the binding signal was 10500 fluorescence intensity (a.u.). As for “GACCCCATGTTCTTGTCTCCTCATGACACACTGGCCATGTCGGAGTCACCTAGTGCAG”, the figure is 9670 fluorescence intensity (a.u.); as for “TATTTTCCTTCAGGGCTGTGGGCGGTGGGCCACAAAACATCGGAGTCACCTAGTGCAG”, 8950 fluorescence intensity (a.u.); as for “TTTCTTTTGTGCTCTTCTTTCTGTCACAGATCATACACCCCGGAGTCACCTAGTGCAG”, 8910 fluorescence intensity (a.u.). As for “TCACCCAACCAATCCGCCGCCGCCACCTCACCGCGCCAATCGGAGTCACCTAGTGCAG”, the figure is 9000 fluorescence intensity (a.u.); as for “ACGATCAGTGTCATCACAGGGCGGCGGGGTTCCTATCCATCGGAGTCACCTAGTGCAG”, 13200 fluorescence intensity (a.u.); as for “AGATCCCGCCGTGCAGATTGCTTCCGAGTCCTTAGCATTTCGGAGTCACCTAGTGCAG”, 9760 fluorescence intensity (a.u.).

With “TTCTCATCTTGGTTTCTTCCTAGTTTCGGGAGAGGATTTTCGGAGTCACCTAGTGCAG”, the binding signal is 9290 fluorescence intensity (a.u.). As for “GGACCCACTTCCAGCGGCTCTTCCACTCCACCACAACACACGGAGTCACCTAGTGCAG”, the figure is 8370 fluorescence intensity (a.u.); as for “TCTTTTGAGTCTTTATCTCTCTTAAAATTTTTGTGTTTTTCGGAGTCACCTAGTGCAG”, 14500 fluorescence intensity (a.u.); as for “GATGCAGATTGTGTCTCGCAGAAATTTCCTTCCTTGTTTCCGGAGTCACCTAGTGCAG”, 10500 fluorescence intensity (a.u.).

Consider “ATGATCCGTGCTCCCTGATTTTGTTGACTAATCCAGACATCGGAGTCACCTAGTGCAG”, for which the binding signal was 10100 fluorescence intensity (a.u.).

As to “GTCATCCCACCCACTCACCCACCCACCCACCCTGATCGCACGGAGTCACCTAGTGCAG”, the binding signal is 12600 fluorescence intensity (a.u.).

For “TCCGCTCGGATTCCGCTCTTCTTCTTCTTCTCCGTCTCCGCGGAGTCACCTAGTGCAG”, the binding signal was 9100 fluorescence intensity (a.u.). As for “TAGCTAGTATTTTTCTATTTTTCTCGCTAATAAGGTTGACCGGAGTCACCTAGTGCAG”, the figure is 9740 fluorescence intensity (a.u.). In the case of “TTATTATTATTCCAGATTTCCAGTGCTAATCTGCGCTTCTCGGAGTCACCTAGTGCAG”, the binding signal is 8440 fluorescence intensity (a.u.).

As to “GCCTCAGCTTTTTTACCACTCAGTTCGCATGCCCTCTATACGGAGTCACCTAGTGCAG”, the binding signal is 13700 fluorescence intensity (a.u.). Under “GCCACCGTCCGATGCAGCCCACTTCCAAGTCGGAGAGCGCCGGAGTCACCTAGTGCAG” stands 8280 fluorescence intensity (a.u.).

In the case of “GCTTGATGCGCATGGGTTGGGTCATCCTTTTGGCATGGCACGGAGTCACCTAGTGCAG”, the binding signal was 12600 fluorescence intensity (a.u.). Under “CGCCACCAACCGCGCCGCCCACCGCCCACGACCTCCACGCCGGAGTCACCTAGTGCAG” stands 9050 fluorescence intensity (a.u.). For the sequence “CCATGGCTTTCCCGTGCCCTGTACTTCTGTACACGAAACTCGGAGTCACCTAGTGCAG”, the binding signal was 8380 fluorescence intensity (a.u.).

On to “AACTAACATTACTATAATACAACCAATATATTTCCGTGCACGGAGTCACCTAGTGCAG”, for which the binding signal is 8160 fluorescence intensity (a.u.). For “AAGTCTAATTTATCTCCCTGTTGCTACAGTAGCTTCTTCACGGAGTCACCTAGTGCAG”, the binding signal is 8880 fluorescence intensity (a.u.). As for “ACTCCACCTCCAATCGAACCCCACCCGCCGCCGCCGCCGGCGGAGTCACCTAGTGCAG”, the figure is 10100 fluorescence intensity (a.u.); as for “TACCATATCAATTTCTTCTACTCGTGTGCAGTGGGATAATCGGAGTCACCTAGTGCAG”, 8920 fluorescence intensity (a.u.); as for “GGGTAAGTAGTTTAATTCTTTAGTTTAGTGCACCAAGTGACGGAGTCACCTAGTGCAG”, 8940 fluorescence intensity (a.u.).
